± gives the standard error. Many entries were measured with a wide error.
B1: glmS ribozyme (parent)
chain: AUAAAAGCGCCAGAACUACAGAAAUGUAGUUGACGAGGAGGAGGUUUAUCGAAUUUUCGGCGGAUGCCUCCAAA

Variants of: B1
Test: self-cleavage kobs at 640 uM GlcN6P; higher = faster cleavage; RNA array
Conditions: with glucosamine-6-phosphate
How it was run: (§1)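 Barcoded glmS ribozyme variants on sequenced MiSeq chips were transcribed in situ by E. coli RNA polymerase and tracked through a hybridised Cy3 probe at 37 °C. Glucosamine-6-phosphate (40 μM to 10 mM) in HEPES/KCl/Mg(OAc)2 buffer was flowed in, and tiles were imaged over ~14 h. Signals were normalised to baseline and to non-cleaving reference variants; per-tile medians were fit to one- or two-exponential decays to give kobs. kcat and KM came from weighted Michaelis–Menten fits across concentrations.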

Row | Variant | self-cleavage kobs at 640 uM GlcN6P [s⁻¹]
1 | C16G C70A | 2.24e-05 ± 2.1e-05
2 | A52C C70A | 1.93e-05 ± 1.6e-05
3 | A52C C70U | 2.05e-05 ± 1.7e-05
4 | G29C G32U U56C | 3.28e-05 ± 3.2e-05
5 | G37U U46G U69A C71U | 3.07e-05 ± 2.7e-05
6 | A36U G66U C71G | 2.98e-05 ± 2.9e-05
7 | G29U U56G A64G C70G | 3.93e-05 ± 2.4e-05
8 | G37U C50A G59A C71G | 4.36e-05 ± 2.2e-05
9 | A15G G37U C61A C68A C70G | 5.68e-05 ± 2.9e-05
10 | G41U A52U | 2.41e-05 ± 1.7e-05
11 | U31G G66U U69G | 4.43e-05 ± 2.4e-05
12 | G59U G66A C70G | 2.99e-05 ± 2.5e-05
13 | G59U C68G | 2.75e-05 ± 1.5e-05
14 | A15U C50U C61A | 3.44e-05 ± 3.1e-05
15 | C50G U55G | 2.02e-05 ± 1.9e-05
16 | U30G U49G U54A | 2.92e-05 ± 2.1e-05
17 | C50G G63C C71U | 8.54e-05 ± 5.5e-05
18 | G51U A53U C68A | 3.12e-05 ± 2.2e-05
19 | G59A C68G C70U | 3.71e-05 ± 3e-05
20 | G51A C70U | 1.56e-05 ± 1.5e-05
21 | G51A C70A | 2.94e-05 ± 1.8e-05
22 | A33U G37U C58U C61U C68U | 4.69e-05 ± 3e-05
23 | C16A U46A | 3.83e-05 ± 2.2e-05
24 | U57A C68A | 3.26e-05 ± 2.7e-05
25 | C58G G63C C71A | 2.7e-05 ± 2.7e-05
26 | C68G U69G | 2.22e-05 ± 1.8e-05
27 | A48G G66A | 2.99e-05 ± 1.8e-05
28 | A42G U45A | 0.0159 ± 0.0095

Shown as comma-separated lines: entries from further up.
Row,Variant,self-cleavage kobs at 640 uM GlcN6P [s⁻¹]
7,G29U U56G A64G C70G,3.93e-05 ± 2.4e-05
15,C50G U55G,2.02e-05 ± 1.9e-05
19,G59A C68G C70U,3.71e-05 ± 3e-05

Variants of: B1
Test: self-cleavage kobs at 160 uM GlcN6P; higher = faster cleavage; RNA array
Conditions: with glucosamine-6-phosphate
How it was run: as §1

Row | Variant | self-cleavage kobs at 160 uM GlcN6P [s⁻¹]
29 | C11G C58A C68A | 4.85e-05 ± 3.1e-05
30 | C11A A12U C16U C70U | 4.61e-05 ± 3.1e-05
31 | A12U C16U A33C | 2.25e-05 ± 1.1e-05
32 | C50G G63C C71U | 3.98e-05 ± 2.5e-05
33 | G13A U47A | 3.28e-05 ± 1.7e-05
34 | A15G U30A C67A C70U | 0.00013 ± 7.1e-05
35 | A15G C58A U69G | 4.39e-05 ± 3.4e-05
36 | U57A C68A | 2.02e-05 ± 1.8e-05
37 | C10U C34A U47G C50G C67G | 2.78e-05 ± 2.1e-05

Variants of: B1
Test: self-cleavage kobs at 2500 uM GlcN6P; higher = faster cleavage; RNA array
Conditions: with glucosamine-6-phosphate
How it was run: as §1

Row | Variant | self-cleavage kobs at 2500 uM GlcN6P [s⁻¹]
38 | C11G C58A C68A | 3.45e-05 ± 2e-05
39 | G59U C68G | 2.42e-05 ± 1.4e-05
40 | G51U A53U C68A | 3.36e-05 ± 2.8e-05
41 | G59A C68G C70U | 3.34e-05 ± 2.9e-05
42 | G51A C70U | 1.64e-05 ± 1.3e-05
43 | A33U G37U C58U C61U C68U | 5.96e-05 ± 3.3e-05
44 | U57A C68A | 2.53e-05 ± 2e-05
45 | A48G G66A | 3.95e-05 ± 2.1e-05
46 | A42G U45A | 0.03 ± 0.015

Variants of: B1
Test: self-cleavage kobs at 10000 uM GlcN6P; higher = faster cleavage; RNA array
Conditions: with glucosamine-6-phosphate
How it was run: as §1

Row | Variant | self-cleavage kobs at 10000 uM GlcN6P [s⁻¹]
47 | U31G G66U U69G | 1.69e-05 ± 1.7e-05
48 | A42G U45A | 0.0116 ± 0.0073
